Data from the supplement of paper PMC6411743.
± gives the standard deviation of the averaged measurements. This is a selection; strong and weak results do not stand in their true shares. Most entries show no effect beyond the scatter of the controls.

The chains behind the UniProt entries cited, without tags or fusion partners. Where a name states a change or a piece, a line headed by the entry shows the natural chain unless it says otherwise.
UniProt O60888: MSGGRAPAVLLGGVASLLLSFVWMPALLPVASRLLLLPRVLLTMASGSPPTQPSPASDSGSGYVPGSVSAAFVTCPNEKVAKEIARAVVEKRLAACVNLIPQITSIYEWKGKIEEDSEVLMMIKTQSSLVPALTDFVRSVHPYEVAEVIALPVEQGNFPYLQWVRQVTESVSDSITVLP
UniProt O94915: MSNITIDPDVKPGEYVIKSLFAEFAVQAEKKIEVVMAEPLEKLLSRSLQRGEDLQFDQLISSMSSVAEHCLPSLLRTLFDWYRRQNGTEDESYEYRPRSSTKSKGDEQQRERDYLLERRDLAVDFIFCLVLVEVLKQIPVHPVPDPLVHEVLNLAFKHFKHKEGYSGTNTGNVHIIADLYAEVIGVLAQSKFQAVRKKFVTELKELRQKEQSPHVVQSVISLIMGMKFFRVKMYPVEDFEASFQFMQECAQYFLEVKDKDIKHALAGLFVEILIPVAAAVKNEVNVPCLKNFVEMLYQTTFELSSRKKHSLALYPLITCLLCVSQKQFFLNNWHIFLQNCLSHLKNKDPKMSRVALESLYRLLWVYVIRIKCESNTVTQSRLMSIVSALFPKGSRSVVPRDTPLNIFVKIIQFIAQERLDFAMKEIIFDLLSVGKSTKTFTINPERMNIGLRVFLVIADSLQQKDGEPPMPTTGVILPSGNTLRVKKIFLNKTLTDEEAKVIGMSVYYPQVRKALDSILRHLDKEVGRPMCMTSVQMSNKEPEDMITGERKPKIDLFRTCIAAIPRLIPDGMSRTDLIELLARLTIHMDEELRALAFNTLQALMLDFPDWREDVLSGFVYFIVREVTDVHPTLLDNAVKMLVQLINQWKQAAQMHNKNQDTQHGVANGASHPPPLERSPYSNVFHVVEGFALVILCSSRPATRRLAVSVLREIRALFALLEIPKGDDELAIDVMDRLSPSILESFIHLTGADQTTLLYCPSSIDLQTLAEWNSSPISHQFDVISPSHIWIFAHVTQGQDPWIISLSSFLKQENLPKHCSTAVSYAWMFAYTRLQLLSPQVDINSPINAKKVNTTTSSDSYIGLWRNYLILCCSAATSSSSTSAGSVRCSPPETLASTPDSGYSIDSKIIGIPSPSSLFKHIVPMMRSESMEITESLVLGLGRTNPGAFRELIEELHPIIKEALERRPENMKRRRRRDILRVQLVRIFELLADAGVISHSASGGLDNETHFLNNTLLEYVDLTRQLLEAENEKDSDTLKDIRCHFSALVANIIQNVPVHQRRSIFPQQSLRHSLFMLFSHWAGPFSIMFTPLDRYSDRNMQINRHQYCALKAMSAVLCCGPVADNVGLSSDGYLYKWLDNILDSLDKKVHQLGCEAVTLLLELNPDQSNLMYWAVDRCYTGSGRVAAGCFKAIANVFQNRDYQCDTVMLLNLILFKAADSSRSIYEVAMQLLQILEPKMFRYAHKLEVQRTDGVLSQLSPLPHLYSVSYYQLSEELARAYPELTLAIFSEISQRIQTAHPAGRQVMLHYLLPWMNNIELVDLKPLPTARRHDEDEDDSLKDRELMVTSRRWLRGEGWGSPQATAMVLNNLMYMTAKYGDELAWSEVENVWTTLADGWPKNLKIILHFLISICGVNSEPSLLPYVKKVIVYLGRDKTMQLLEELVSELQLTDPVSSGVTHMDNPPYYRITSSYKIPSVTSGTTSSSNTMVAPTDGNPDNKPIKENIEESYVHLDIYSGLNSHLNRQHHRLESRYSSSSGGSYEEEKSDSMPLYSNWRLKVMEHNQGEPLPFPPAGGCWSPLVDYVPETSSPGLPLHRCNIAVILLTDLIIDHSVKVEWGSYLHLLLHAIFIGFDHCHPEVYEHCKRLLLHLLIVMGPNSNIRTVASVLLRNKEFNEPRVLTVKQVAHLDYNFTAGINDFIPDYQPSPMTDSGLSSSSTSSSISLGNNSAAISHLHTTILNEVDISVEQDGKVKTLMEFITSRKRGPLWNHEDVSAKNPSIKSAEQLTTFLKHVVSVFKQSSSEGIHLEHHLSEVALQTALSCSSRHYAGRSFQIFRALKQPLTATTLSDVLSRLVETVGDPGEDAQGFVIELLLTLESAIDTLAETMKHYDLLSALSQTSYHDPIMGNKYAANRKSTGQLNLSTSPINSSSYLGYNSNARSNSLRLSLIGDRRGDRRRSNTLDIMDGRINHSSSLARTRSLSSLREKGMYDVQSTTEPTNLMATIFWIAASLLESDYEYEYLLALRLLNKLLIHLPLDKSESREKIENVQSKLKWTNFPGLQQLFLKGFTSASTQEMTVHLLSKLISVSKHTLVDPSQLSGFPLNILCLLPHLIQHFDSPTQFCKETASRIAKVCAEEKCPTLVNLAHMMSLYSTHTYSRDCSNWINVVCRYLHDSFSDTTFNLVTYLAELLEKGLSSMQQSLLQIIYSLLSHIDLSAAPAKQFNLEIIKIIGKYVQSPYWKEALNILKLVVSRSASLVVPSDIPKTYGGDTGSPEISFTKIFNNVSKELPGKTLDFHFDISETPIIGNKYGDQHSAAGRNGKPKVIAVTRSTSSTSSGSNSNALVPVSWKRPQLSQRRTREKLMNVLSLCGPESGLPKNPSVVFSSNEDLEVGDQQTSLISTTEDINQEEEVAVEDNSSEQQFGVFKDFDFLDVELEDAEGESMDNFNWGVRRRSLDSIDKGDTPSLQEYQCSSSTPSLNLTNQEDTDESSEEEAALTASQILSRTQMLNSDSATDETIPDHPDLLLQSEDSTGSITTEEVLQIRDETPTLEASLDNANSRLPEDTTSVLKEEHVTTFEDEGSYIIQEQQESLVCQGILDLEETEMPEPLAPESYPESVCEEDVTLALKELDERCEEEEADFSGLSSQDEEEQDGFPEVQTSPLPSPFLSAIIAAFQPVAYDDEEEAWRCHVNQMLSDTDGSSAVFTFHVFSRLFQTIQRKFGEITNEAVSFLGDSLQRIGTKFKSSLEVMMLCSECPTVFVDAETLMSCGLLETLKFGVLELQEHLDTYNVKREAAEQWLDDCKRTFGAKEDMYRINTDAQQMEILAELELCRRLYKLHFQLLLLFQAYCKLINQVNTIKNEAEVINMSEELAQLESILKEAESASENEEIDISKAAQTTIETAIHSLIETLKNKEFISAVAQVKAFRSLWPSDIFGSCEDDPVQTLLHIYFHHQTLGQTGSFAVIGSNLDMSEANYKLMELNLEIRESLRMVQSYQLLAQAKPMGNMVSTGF
UniProt O60508: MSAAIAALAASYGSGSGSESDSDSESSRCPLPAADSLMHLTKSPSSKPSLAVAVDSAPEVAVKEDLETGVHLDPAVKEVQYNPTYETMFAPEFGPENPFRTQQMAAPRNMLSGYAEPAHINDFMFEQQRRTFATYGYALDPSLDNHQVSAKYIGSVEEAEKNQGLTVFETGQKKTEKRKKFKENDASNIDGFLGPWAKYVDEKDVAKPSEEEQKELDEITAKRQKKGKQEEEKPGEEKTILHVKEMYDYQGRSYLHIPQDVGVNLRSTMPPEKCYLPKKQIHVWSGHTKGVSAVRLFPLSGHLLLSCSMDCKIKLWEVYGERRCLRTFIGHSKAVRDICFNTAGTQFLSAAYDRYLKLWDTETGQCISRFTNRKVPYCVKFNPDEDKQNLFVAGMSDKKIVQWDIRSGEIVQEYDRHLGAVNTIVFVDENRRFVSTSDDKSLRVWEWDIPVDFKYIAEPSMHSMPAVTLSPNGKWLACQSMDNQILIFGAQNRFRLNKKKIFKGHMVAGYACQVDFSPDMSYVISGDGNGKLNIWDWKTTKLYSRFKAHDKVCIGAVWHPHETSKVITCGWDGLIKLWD
UniProt O95071: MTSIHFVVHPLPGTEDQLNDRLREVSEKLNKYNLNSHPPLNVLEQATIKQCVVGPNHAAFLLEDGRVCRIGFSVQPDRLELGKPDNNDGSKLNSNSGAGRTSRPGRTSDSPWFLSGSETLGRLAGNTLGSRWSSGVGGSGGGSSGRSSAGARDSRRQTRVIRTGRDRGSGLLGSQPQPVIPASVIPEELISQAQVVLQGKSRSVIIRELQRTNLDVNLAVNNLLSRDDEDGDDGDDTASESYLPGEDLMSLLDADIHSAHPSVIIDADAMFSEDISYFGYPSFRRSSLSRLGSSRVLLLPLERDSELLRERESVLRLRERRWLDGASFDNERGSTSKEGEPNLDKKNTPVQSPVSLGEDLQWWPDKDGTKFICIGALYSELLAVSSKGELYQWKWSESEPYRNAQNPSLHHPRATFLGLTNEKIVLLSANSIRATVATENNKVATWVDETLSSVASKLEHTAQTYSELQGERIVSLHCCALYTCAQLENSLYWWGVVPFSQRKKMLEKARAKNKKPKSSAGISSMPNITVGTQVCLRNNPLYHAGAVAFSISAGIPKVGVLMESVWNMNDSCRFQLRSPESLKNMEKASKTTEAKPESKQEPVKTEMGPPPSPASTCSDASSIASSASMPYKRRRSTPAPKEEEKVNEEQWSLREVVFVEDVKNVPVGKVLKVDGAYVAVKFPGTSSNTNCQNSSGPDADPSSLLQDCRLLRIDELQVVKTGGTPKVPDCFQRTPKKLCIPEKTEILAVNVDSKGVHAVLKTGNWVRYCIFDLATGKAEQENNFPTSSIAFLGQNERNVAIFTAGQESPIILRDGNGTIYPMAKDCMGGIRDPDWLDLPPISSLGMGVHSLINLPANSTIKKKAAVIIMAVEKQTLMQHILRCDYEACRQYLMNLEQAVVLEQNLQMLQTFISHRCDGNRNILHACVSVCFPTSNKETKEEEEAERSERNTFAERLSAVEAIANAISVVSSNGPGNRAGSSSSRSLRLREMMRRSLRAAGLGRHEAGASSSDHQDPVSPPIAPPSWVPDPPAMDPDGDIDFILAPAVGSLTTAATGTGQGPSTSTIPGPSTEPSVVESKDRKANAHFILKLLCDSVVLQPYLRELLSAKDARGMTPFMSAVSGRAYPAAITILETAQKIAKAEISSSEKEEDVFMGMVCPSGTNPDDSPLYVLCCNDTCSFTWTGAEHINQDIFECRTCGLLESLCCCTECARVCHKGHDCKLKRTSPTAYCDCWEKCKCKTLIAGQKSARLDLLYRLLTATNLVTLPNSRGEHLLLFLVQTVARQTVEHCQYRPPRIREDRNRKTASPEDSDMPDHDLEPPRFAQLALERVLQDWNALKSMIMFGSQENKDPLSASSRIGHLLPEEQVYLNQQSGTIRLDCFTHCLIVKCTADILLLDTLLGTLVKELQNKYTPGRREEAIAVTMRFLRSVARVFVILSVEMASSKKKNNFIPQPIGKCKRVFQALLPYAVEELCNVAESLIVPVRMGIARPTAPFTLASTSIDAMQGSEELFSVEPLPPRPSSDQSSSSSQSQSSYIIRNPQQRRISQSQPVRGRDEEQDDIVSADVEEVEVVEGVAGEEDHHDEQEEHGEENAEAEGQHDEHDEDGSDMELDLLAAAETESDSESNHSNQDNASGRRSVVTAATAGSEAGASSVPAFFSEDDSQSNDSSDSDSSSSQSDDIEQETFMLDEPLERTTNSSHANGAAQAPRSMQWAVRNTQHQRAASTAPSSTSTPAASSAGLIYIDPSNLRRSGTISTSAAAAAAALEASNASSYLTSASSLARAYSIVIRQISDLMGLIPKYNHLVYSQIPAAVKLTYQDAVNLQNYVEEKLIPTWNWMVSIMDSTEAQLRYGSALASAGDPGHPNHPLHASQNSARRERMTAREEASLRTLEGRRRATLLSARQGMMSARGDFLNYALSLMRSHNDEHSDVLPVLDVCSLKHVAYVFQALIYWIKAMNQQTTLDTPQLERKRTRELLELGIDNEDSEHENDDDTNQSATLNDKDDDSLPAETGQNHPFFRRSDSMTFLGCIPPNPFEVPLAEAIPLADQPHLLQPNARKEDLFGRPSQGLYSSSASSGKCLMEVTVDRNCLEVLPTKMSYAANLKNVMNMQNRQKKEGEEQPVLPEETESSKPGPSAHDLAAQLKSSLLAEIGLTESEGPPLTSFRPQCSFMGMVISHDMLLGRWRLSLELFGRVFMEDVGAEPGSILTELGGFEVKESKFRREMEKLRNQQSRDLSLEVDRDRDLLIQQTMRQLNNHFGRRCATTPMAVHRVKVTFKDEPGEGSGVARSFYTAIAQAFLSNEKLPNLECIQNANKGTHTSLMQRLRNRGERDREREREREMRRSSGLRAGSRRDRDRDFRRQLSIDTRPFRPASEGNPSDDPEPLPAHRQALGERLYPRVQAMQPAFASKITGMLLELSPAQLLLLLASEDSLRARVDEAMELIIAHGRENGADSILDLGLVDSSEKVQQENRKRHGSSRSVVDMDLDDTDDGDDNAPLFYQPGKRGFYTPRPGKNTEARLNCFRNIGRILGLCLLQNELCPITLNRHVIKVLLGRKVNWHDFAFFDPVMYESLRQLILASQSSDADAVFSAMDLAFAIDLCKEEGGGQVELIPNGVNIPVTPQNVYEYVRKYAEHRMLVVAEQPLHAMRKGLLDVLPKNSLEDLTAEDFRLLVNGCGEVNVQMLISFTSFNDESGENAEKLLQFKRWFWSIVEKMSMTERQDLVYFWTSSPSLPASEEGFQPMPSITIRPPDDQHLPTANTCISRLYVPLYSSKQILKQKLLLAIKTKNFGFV

Compound: Nc1ncnc2c1ncn2[C@@H]1O[C@H](COP(=O)(O)OP(=O)(O)NP(=O)(O)O)[C@@H](O)[C@H]1O [adenylyl imidodiphosphate]
Assay: NP40-soluble protein abundance relative to vehicle (solubility fold change) (ratio); higher = more soluble protein in presence of AMP-PNP
In short: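 Eight concentrations, 0.1 to 10 mM, were tested on Jurkat crude lysate for 10 min at room temperature and then 3 min at 37 °C, in three independent experiments. The lysate was solubilised with 0.8% NP40 and benzonase, ultracentrifuged, and the supernatant TMT-labelled for LC-MS/MS. Each value is the fold change against the detergent-processed vehicle in its own replicate, from vsn-normalised intensities.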

Target	NP40-soluble protein abundance (concentration: 0.1mM)	NP40-soluble protein abundance (concentration: 0.5mM)
SMPD2 (UniProt O60906)	0.981 ± 0.032	0.985 ± 0.021
PPM1B (UniProt O75688)	0.995 ± 0.031	0.993 ± 0.013
ZFAND5 (UniProt O76080)	0.951 ± 0.032	0.943 ± 0.032
KIF4A (UniProt O95239)	0.9808 ± 0.0096	1.01 ± 0.045
UniProt O94985-2	1.01 ± 0.047	1.02 ± 0.029
UniProt O95429 and related entries	1.011 ± 0.01	1.006 ± 0.0046
UniProt O75190-2|A0A0J9YX62|O75190 and related entries	0.923 ± 0.023	0.824 ± 0.062
MED14 (UniProt O60244)	0.994 ± 0.036	1 ± 0.069
CTSV (UniProt O60911)	0.971 ± 0.04	1.02 ± 0.045
HUS1 (UniProt O60921)	1.02 ± 0.012	0.98 ± 0.035
UniProt O75460	1.01 ± 0.024	1.04 ± 0.029
UniProt O60888 and related entries	1.03 ± 0.047	1.07 ± 0.046
UniProt O95425 and related entries	0.975 ± 0.048	1.04 ± 0.02
UniProt O43933 and related entries	1.13 ± 0.044	1.11 ± 0.045
SNUPN (UniProt O95149)	1.01 ± 0.027	0.97 ± 0.054
ERAL1 (UniProt O75616)	0.792 ± 0.037	0.802 ± 0.034
UniProt O95155 and related entries	1.01 ± 0.016	0.964 ± 0.029
FRYL (UniProt O94915)	0.988 ± 0.039	0.99 ± 0.043
NMT2 (UniProt O60551)	0.994 ± 0.038	1.02 ± 0.021
DNAJC8 (UniProt O75937)	1 ± 0.091	1.02 ± 0.084

Target	NP40-soluble protein abundance (concentration: 0.1mM)	NP40-soluble protein abundance (concentration: 0.5mM)
UniProt O94842 and related entries	1.03 ± 0.048	1.02 ± 0.053
AGFG2 (UniProt O95081)	0.97 ± 0.025	0.993 ± 0.021
UniProt O94766 and related entries	1.01 ± 0.059	0.962 ± 0.05
TACC1 (UniProt O75410)	0.991 ± 0.018	0.981 ± 0.041
CBR3 (UniProt O75828)	0.983 ± 0.023	0.991 ± 0.032
UniProt O75323	1.01 ± 0.042	1.02 ± 0.043
UniProt O75592 and related entries	1.03 ± 0.024	0.999 ± 0.019
UniProt O60313-2|E5KLJ5	0.987 ± 0.0098	0.9961 ± 0.0067
UniProt O75175 and related entries	0.94 ± 0.0095	0.945 ± 0.036
UniProt O60508 and related entries	0.993 ± 0.027	0.989 ± 0.058
MED26 (UniProt O95402)	1.05 ± 0.017	1.03 ± 0.034
UniProt O95167 and related entries	1.01 ± 0.013	1.01 ± 0.029
CPSF4 (UniProt O95639)	1.02 ± 0.039	0.991 ± 0.039
UniProt O95475	1.01 ± 0.031	1.02 ± 0.042
UniProt O95487 and related entries	1.01 ± 0.026	1.03 ± 0.011
UniProt O94874	1 ± 0.03	0.9893 ± 0.0067
WFS1 (UniProt O76024)	1.013 ± 0.0058	0.998 ± 0.031
UniProt O75093 and related entries	0.997 ± 0.024	0.981 ± 0.032
UniProt O75390 and related entries	1.11 ± 0.16	0.869 ± 0.24
POLR1A (UniProt O95602)	1.01 ± 0.056	0.984 ± 0.068

Look-ups from the results shown.
NP40-soluble protein abundance (concentration: 0.5mM) with UniProt O75175 and related entries reads 0.945 ± 0.036
NP40-soluble protein abundance (concentration: 0.1mM) with UniProt O75323 reads 1.01 ± 0.042
NP40-soluble protein abundance (concentration: 0.5mM) with UniProt O75093 and related entries reads 0.981 ± 0.032

Next part:

Target	NP40-soluble protein abundance (concentration: 0.1mM)	NP40-soluble protein abundance (concentration: 0.5mM)
VAPB (UniProt O95292)	0.985 ± 0.03	1.04 ± 0.066
MTA2 (UniProt O94776)	0.999 ± 0.019	1.01 ± 0.016
UniProt O60488 and related entries	1.02 ± 0.018	1.05 ± 0.014
UniProt O75534 and related entries	0.976 ± 0.012	0.996 ± 0.028
UniProt O94916 and related entries	1.02 ± 0.055	1.01 ± 0.023
TIPRL (UniProt O75663)	1 ± 0.043	1.02 ± 0.036
UniProt O75569 and related entries	1.02 ± 0.048	0.996 ± 0.023
UniProt O95628-10|O95628-4|O95628-8|O95628-9|O95628 and related entries	0.994 ± 0.017	0.992 ± 0.018
ZBED4 (UniProt O75132)	1.01 ± 0.025	0.993 ± 0.037
UniProt O95071 and related entries	1.03 ± 0.055	1 ± 0.046
UniProt O95379-3|O95379-4	0.989 ± 0.058	0.976 ± 0.011
PLOD3 (UniProt O60568)	1 ± 0.02	1 ± 0.027
UniProt O95684-2	0.9671 ± 0.0046	1.02 ± 0.031
UniProt O95243-2|O95243-5|O95243	0.985 ± 0.023	0.974 ± 0.026
UniProt O95169 and related entries	0.999 ± 0.034	1.02 ± 0.037
UniProt O95104 and related entries	1.06 ± 0.05	1.04 ± 0.045
UniProt O95163	1 ± 0.032	0.983 ± 0.082
E2F6 (UniProt O75461)	1.035 ± 0.01	0.976 ± 0.066
CD2BP2 (UniProt O95400)	0.986 ± 0.045	1 ± 0.024
UniProt O75582 and related entries	1 ± 0.041	1.01 ± 0.011
